Test results from PMC12172431.
No constants are given. Whether binding was seen depends on the method and setting. In cells and extracts the contact can be indirect. Some results given as binding are weak or reduced against the parent protein; the word gives no strength.

Sequences of proteins named here, by UniProt entry; tags and fusion partners are left off.
UniProt P41467: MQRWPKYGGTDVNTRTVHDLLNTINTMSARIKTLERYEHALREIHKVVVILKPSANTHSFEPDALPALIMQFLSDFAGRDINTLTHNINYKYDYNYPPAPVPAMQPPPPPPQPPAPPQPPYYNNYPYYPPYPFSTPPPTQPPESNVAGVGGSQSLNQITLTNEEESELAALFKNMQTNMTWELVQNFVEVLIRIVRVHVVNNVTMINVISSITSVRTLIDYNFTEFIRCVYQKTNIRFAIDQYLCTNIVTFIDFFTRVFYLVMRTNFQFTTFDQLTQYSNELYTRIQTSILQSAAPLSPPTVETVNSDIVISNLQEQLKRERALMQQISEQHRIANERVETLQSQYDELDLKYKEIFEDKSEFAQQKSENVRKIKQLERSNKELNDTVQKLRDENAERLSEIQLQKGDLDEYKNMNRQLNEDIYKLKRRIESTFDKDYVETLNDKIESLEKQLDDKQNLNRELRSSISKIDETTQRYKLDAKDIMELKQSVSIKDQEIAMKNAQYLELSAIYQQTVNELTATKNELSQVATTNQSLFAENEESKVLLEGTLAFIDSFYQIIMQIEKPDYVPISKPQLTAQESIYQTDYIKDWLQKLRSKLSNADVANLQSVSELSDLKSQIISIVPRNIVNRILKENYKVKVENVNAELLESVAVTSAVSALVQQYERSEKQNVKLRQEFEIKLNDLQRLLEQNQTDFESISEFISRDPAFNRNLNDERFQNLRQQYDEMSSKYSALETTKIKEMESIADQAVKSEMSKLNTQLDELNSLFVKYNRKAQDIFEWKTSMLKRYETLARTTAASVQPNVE
UniProt P41455: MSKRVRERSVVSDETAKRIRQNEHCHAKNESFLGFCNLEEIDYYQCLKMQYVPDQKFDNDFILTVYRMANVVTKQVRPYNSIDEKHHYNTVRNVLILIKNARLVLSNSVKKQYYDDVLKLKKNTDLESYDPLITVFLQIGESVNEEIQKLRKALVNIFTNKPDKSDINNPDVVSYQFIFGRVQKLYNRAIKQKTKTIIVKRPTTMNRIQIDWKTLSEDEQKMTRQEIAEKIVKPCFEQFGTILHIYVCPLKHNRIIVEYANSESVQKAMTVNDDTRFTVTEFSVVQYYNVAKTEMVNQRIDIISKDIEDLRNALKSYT
UniProt P24730: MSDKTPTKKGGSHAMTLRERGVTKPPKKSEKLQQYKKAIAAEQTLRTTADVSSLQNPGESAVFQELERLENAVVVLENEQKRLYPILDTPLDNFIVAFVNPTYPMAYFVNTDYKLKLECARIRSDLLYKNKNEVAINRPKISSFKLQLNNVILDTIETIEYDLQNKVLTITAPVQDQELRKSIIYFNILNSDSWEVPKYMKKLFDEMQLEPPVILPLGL
UniProt Q04719: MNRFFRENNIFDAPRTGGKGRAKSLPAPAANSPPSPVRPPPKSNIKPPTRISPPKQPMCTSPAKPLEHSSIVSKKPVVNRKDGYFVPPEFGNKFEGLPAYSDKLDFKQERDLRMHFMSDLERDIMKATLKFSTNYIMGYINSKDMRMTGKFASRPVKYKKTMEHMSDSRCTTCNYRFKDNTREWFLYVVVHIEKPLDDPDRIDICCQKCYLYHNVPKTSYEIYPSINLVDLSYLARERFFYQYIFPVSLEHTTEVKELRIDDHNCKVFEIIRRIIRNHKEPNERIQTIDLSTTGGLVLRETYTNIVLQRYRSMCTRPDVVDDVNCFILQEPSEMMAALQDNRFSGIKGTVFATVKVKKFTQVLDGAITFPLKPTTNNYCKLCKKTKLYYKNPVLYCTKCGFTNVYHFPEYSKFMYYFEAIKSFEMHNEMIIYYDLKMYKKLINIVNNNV

Columns and labels:
[1] = target: Flag-tagged Ac66 (AcMNPV) (UniProt P41467); assay: co-IP; Sf9 cells infected with vAcWT^Ac66Flag or vAcWT^EXON0Flag (MOI 5), 48 h p.i.; lysate on Flag-conjugated magnetic beads, or anti-Ac51 antibody with protein A/G agarose, 4°C overnight; IgG control; western blot
[2] = target: Ac51 (AcMNPV) (UniProt P41455); assay: co-IP; Sf9 cells transfected with pIB-ME53GFP and infected with vAcWT or vAcWT^Ac66Flag, or infected with vAc132HA alone or with vAcWT^Ac66Flag, 48 h p.i.; IP with anti-Ac51 or anti-Flag antibody, IgG control; western blot
[3] = target: Flag-tagged Ac66 (AcMNPV) (UniProt P41467); assay: as above
[4] = target: Ac51 (AcMNPV) (UniProt P41455); assay: co-IP; Sf9 cells infected with vAcWT^Ac66Flag or vAcWT^EXON0Flag (MOI 5), 48 h p.i.; lysate on Flag-conjugated magnetic beads, or anti-Ac51 antibody with protein A/G agarose, 4°C overnight; IgG control; western blot

| Substance | binding [1] | binding [2] | binding [3] | binding [4] |
| --- | --- | --- | --- | --- |
| Ac51 (from UniProt P41455 1-318) | binds |  |  |  |
| Ac132HA (from UniProt P24730 1-219) |  | binds | binds |  |
| Flag-tagged Ac66 (from UniProt P41467 1-808) |  |  |  | binds |
| ME53GFP (from UniProt Q04719 1-449) |  | binds | binds |  |
